Drawing on PubChem BioAssay AID256 (DTP/NCI, 2004), this text covers T/C and survivor count for 5 compounds.

The assay deals with CD2F1 mice, L1210 leukemia ip, survival T/C. Kind of assay: NCI In Vivo Anticancer Drug Screen. Data for tumor model L1210 Leukemia (intraperitoneal) in CD2F1 (CDF1) mice. To be noted: higher T/C = longer survival. Put shortly: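 Mice carrying a transplanted tumor received test compound or vehicle alone. The value is the measurement in the treated group divided by that in the vehicle-treated control group.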

Each structure is given as a SMILES string. The list does not hold the whole screen: it is rich in T/C values a quarter to a half above the control, in often repeated tests (any T/C) and in doses without a T/C. Further doses and runs are listed elsewhere. T/C: endpoint of the treated group in % of that of the vehicle group. Some doses have a count of surviving animals in place of a T/C: the source holds a T/C of zero for them, seemingly a mark for toxic or unscored doses. Some doses without a T/C left all or most animals alive at the check, yet need not have been tolerated: survival well below the control is almost never listed, so the zero probably covers shortened survival too. Survivors were counted at the toxicity check, usually on the fifth day, unless a day is given; later deaths do not show. Schedules are NCI's codes, taken here to give the interval after Q, in days (D) or hours (H), and the number of doses after X. For survival time, the PubChem record calls one and a half times the control and up active, and a quarter to a half above the control has no call in these data; cut-offs in other NCI protocols can differ. Some T/C values carry the count of animals alive at the toxicity check (mostly the fifth day); without a count, all were alive then. Some doses were run more than once; their values stand side by side, smallest first.

Turning to `CN(C)N=Nc1c(F)cccc1F`, the T/C runs as follows: (T/C endpoint: mean survival time, dose: 50.0 mg/kg/injection, schedule: Q01DX009 (ip), vehicle: other) 144 % of control; (T/C endpoint: mean survival time, dose: 100.0 mg/kg/injection, schedule: Q01DX009 (ip), vehicle: saline with Tween-80) 128 % of control. Also, the survivor count runs as follows: (T/C endpoint: mean survival time, dose: 200.0 mg/kg/injection, schedule: Q01DX009 (ip), vehicle: other) 4 of 6; (T/C endpoint: mean survival time, dose: 200.0 mg/kg/injection, schedule: Q01DX009 (ip), vehicle: saline with Tween-80) 4 of 6.

As to `CC(=O)/C(=C\c1ccccc1)CNC1CCCCC1`, the survivor count was 0 of 3 (T/C endpoint: mean survival time, dose: 25.0 mg/kg/injection, schedule: Q01DX001 (ip), vehicle: saline with Tween-80); 0 of 3 (T/C endpoint: mean survival time, dose: 100.0 mg/kg/injection, schedule: Q01DX001 (ip), vehicle: saline with Tween-80); 0 of 3 (T/C endpoint: mean survival time, dose: 200.0 mg/kg/injection, schedule: Q01DX001 (ip), vehicle: saline with Tween-80); 0 of 3 (T/C endpoint: mean survival time, dose: 400.0 mg/kg/injection, schedule: Q01DX001 (ip), vehicle: saline with Tween-80).

Take `Cc1cc(=O)n2c3c(c4c(cc13)c(CN(C)C)cc(=O)n4C)OC2`: the T/C (T/C endpoint: median survival time, dose: 50.0 mg/kg/injection, schedule: Q01DX009 (ip), vehicle: saline with Tween-80) is 128 [5 of 6 alive] and 147 % of control. Further, under “T/C endpoint: median survival time, dose: 100.0 mg/kg/injection, schedule: Q01DX009 (ip), vehicle: saline with Tween-80”, the survivor count is 3 of 6.

For `CCN(CC)c1nc(N(CC)CC)nc(N(CC)CC)n1`, under “T/C endpoint: mean survival time, dose: 400.0 mg/kg/injection, schedule: Q01DX009 (ip), vehicle: saline with Tween-80”, the survivor count is listed as 10 of 10.

On to `COc1cc2c3c(cccc3c1)C(=O)N(CCN(C)C)C2=O`, for which, under “T/C endpoint: mean survival time, dose: 160.0 mg/kg/injection, schedule: Q01DX009 (ip), vehicle: saline with Tween-80”, the survivor count is on record as 4 of 6.
